# Test results as given in PubChem BioAssay AID1345085 (National Center for Advancing Translational Sciences (NCATS), 2018).
# This list was built around the results that the source calls inconclusive (neither active nor inactive); the mix of calls is not that of the screen. Where the call is inconclusive, the potency comes from a doubtful curve fit. The source made the active and inactive calls. Calls come from the whole dose curve; as a rule, active = well fitted cell-killing curve with a large enough effect; inconclusive = small, poorly fitted or top-dose-only effect, or effect the other way; inactive = no such curve, though single readings can be large or run the other way.
# Tested on: C33A
# Experiment: Confirmatory qHTS for gynecologic anti-cancer compounds from libraries of approved drugs and bioactive compounds; note: nearly all actives have a fitted effect of over 55% in size
# Conditions: gynecologic cancer cell panel viability, ATPlite luminescence, 48 h; series mostly up to 57.6 µM
# Excerpt: National Center for Advancing Translational Sciences [NCATS] Assay Overview: Chemotherapeutic drug responses vary from cancer to cancer and from patient to patient. These variations could be caused by a number of factors including patient genomic background, tumor mutations, tumor heterogeneity, and aspects of drug treatment. Chemotherapeutic drug resistance is also a common issue and can lead to ineffective treatment and patient death. Here we have profiled the cell killing effects of thousands of compounds to characterize the responses in three gynecological cancers, identify cancer-selective compounds, and understand the diversity of responses to these compounds from pan-cancer suppressors to single cell line selective compounds. In this assay, we screened a 7,914 compound drug library that included approved drug and bioactive compounds in six ovarian, three cervical, and two placental cancer cell lines using the ATPlite assay for cell viability. ATPlite is a luminescence based assay reliant on the conversion of a luciferase substrate to light in the presence of ATP. As a cytotoxic compound will suppress growth and decrease the number of cells, the concentration of ATP will decrease, and less light signal will be detected in the well. Hits were selected from the primary screen for follow-up confirmation. For the confirmation screens, the ovarian cancer cell lines included CAOV-3, SK-OV-3, SW 626, ES-2, PA-1, and TOV-21G. The cervical cancer cell lines included HeLa, Ca Ski, and C-33 A. The placental cancer cell lines included JEG-3 and JAR. HEK 293T cells were used as the control cell line to determine the selectivity index. The ATPlite assay was used to determine the IC50 values.
# Assay Protocol Summary: 1,000 cells in 4 uL of media were dispensed into white, solid bottom 1536-well plates using a Multidrop Combi (Thermo Scientific). The Assay plates were incubated for 16 hours at 37 C with 5% CO2 in assay plates, followed by the addition of 23 nL of DMSO or drug dissolved in DMSO. . Each compound was assayed in 11 concentrations (1:3 dilution) from 57.5 uM to 0.977 nM, using the automated Wako 1536 Pin Tool workstation and incubated at 37 C with 5% CO2 48 hours. 4 uL of ATPlite, the ATP monitoring reagent, was then added to the each well of the assay plates using the Multidrop Combi reagent dispenser followed by incubation for 15 minutes at room temperature. The resulting luminescence was measured using the ViewLux plate reader.
# % is set by controls: 0 for no effect and ±100 for the full control effect; potency is the fitted concentration of half-maximal effect.
Compound,Potency,"activity change, negative = viability loss"
Cc1c(NC(=O)OCC2COCCN2)cn2ncnc(Nc3ccc4c(cnn4Cc4cccc(F)c4)c3)c12 (stereo not given),active: 24.3 µM,–
CNC(=O)CN1CCC(Oc2cc3c(Nc4cccc(Cl)c4F)ncnc3cc2OC)CC1,"inconclusive: 0.122 µM [cytotoxic, full curve, poor fit]",–
O=c1[nH]c(=O)n([C@H]2C[C@H](O)[C@@H](CO)O2)cc1Br,"inconclusive: 3.85 µM [cytotoxic, single point]",–
O=C1N(c2ccccc2)c2ccccc2C1(Cc1ccncc1)Cc1ccncc1,inactive,–
Oc1cn2c(n1)Nc1ccc(Cl)c(Cl)c1C2,inactive,–
Cn1cc(-c2[nH]c3cc(NC(=O)[C@H](N)C4CCCCC4)cc4c3c2C=NNC4=O)cn1,"inconclusive: 1.22 µM [cytotoxic, full curve]",–
CC1(C)[C@@H](O)CC[C@]2(C)[C@H]3C(=O)C=C4[C@@H]5C[C@@](C)(C(=O)O)CC[C@]5(C)CC[C@@]4(C)[C@]3(C)CC[C@@H]12,inactive,–
Cc1nc(NC(=O)N2CCCC2C(N)=O)sc1-c1csc(C(C)(C)C)n1 (stereo not given),"inconclusive: 19.3 µM [cytotoxic, partial curve, poor fit]",–
COc1c(C)c2c(c(O)c1C/C=C(\C)CCC(=O)OCCN1CCOCC1)C(=O)OC2,active: 2.73 µM,–
Cc1cc(CN2CCN(c3c(Br)cnc4nc(-c5ccc(N6CCN(C)CC6)cc5)[nH]c34)CC2)no1,active: 24.3 µM,–
Cc1nc(N)ncc1-c1nc(N2CCOCC2)c2sc(C(C)(C)O)cc2n1,"inconclusive: 1.09 µM [cytotoxic, full curve]",–
O=C(Nc1cccnc1)N1CCC(Cc2cccc(Oc3ccc(C(F)(F)F)cn3)c2)CC1,"inconclusive: 13.7 µM [cytotoxic, partial curve]",–
COc1ccc(-c2nc3ccc(C4=NNC(=O)CC4C)cc3[nH]2)cc1 (stereo not given),"inconclusive: 24.3 µM [cytotoxic, partial curve]",–
Fc1cc(-c2cccc3ncc(-c4cnn(C5CCNCC5)c4)nc23)cc(F)c1CN1CCOCC1,active: 24.3 µM,–
C#C[C@]1(O)CC[C@H]2[C@@H]3CCC4=CC(=O)CC[C@@H]4[C@H]3CC[C@@]21CC,inactive,–
CC[C@H](Nc1ncnc2nc[nH]c12)c1nc2cccc(F)c2c(=O)n1-c1ccccc1,–,inactive: -0.528% [at 10.7 µM]
CCN(CC)CCCC(C)Nc1ccnc2cc(Cl)ccc12 (stereo not given),inactive,–
COC(C)(C)CCn1nc(Nc2c(C)cccc2C)c2cnc(Nc3ccc(OCCN4CCCC4)c(F)c3)nc21,"inconclusive: 24.3 µM [cytotoxic, single point]",–
COc1cc(N2CCC(N(C)C)CC2)ccc1Nc1ncc(Cl)c(Nc2ccccc2P(C)(C)=O)n1,"inconclusive: 5.44 µM [cytotoxic, partial curve]",–
CS(=O)(=O)c1ccc(C(=O)Nc2ccc(Cl)c(-c3ccccn3)c2)c(Cl)c1,"inconclusive: 0.968 µM [rising, partial curve, poor fit]",–

Compound,Potency,"activity change, negative = viability loss"
CCc1nc(C(N)=O)c(Nc2ccc(N3CCC(N4CCN(C)CC4)CC3)c(OC)c2)nc1NC1CCOCC1,inactive,–
C[C@]12CCC(=O)C=C1CC[C@@H]1[C@@H]2[C@@H](O)C[C@@]2(C)[C@H]1CC[C@]2(O)C(=O)CO,inactive,–
CCCS(=O)c1ccc2nc(NC(=O)OC)[nH]c2c1 (stereo not given),inactive,–
CN(C[C@@H]1COCCO1)S(=O)(=O)Nc1ccc2ccc3ncc(-c4cnn(C)c4)cc3c(=O)c2c1,"inconclusive: 24.3 µM [cytotoxic, single point]",–
NC(=O)c1cccc2cn(-c3ccc([C@@H]4CCCNC4)cc3)nc12,"inconclusive: 4.85 µM [cytotoxic, full curve, poor fit]",–
Cc1cc(C2CCCCC2)n(O)c(=O)c1,active: 7.03 µM,–
Cc1ccc2nc(N)[nH]c(=O)c2c1Sc1ccncc1,"inconclusive: 0.685 µM [cytotoxic, full curve]",–
NCCOc1cc(C(=O)Nc2cc(OCCN)c3ccccc3n2)nc(C(=O)Nc2cc(OCCN)c3ccccc3n2)c1,"inconclusive: 19.3 µM [cytotoxic, partial curve, poor fit]",–
CN1CCCC(n2nc(Cc3ccc(Cl)cc3)c3ccccc3c2=O)CC1 (stereo not given),"inconclusive: 38.5 µM [cytotoxic, single point]",–
CN(Cc1cnc2nc(N)nc(N)c2n1)c1ccc(C(=O)N[C@@H](CCC(=O)O)C(=O)O)cc1,inactive,–
COc1cc(Nc2ncc3c(n2)-c2ccc(Cl)cc2C(c2c(F)cccc2OC)=NC3)ccc1C(=O)O,inactive,–
C[C@]12CCC(=O)C=C1[C@@H]1C[C@@H]1[C@H]1[C@@H]3[C@@H]4C[C@@H]4[C@@]4(CCC(=O)O4)[C@@]3(C)CC[C@@H]12,inactive,–
O=C1Cc2cc(CCN3CCN(c4nsc5ccccc45)CC3)c(Cl)cc2N1,"inconclusive: 30.6 µM [cytotoxic, single point]",–
O=c1cc(CN2CCOCC2)occ1OCCCCCSc1ccnc2cc(C(F)(F)F)ccc12,inactive,–
O=C(NOCC1CC1)c1ccc(F)c(F)c1Nc1ccc(I)cc1Cl,inactive,–
Cn1cnc([N+](=O)[O-])c1Sc1ncnc2nc[nH]c12,"inconclusive: 4.32 µM [cytotoxic, full curve]",–
O=C(c1ccc(/C=C/c2n[nH]c3ccccc23)cc1)N1CCNCC1,"inconclusive: 8.63 µM [cytotoxic, partial curve]",–
CN1CCN(c2ccc(OC(F)(F)F)c(Nc3ncc4c(n3)-c3c(c(C(N)=O)nn3CCO)CC4)c2)CC1,"inconclusive: 0.137 µM [cytotoxic, full curve]",–
NS(=O)(=O)c1ccc(Nc2nc(OCC3CCCCC3)c3[nH]cnc3n2)cc1,inactive,–
COc1ccc2c(c1)c(CC(=O)O)c(C)n2C(=O)c1ccc(Cl)cc1,inactive,–

# In the list so far, these have an aryl thioether with sulfur outside any ring.
Compound,Potency,"activity change, negative = viability loss"
Cc1ccc2nc(N)[nH]c(=O)c2c1Sc1ccncc1,"inconclusive: 0.685 µM [cytotoxic, full curve]",–
O=c1cc(CN2CCOCC2)occ1OCCCCCSc1ccnc2cc(C(F)(F)F)ccc12,inactive,–
Cn1cnc([N+](=O)[O-])c1Sc1ncnc2nc[nH]c12,"inconclusive: 4.32 µM [cytotoxic, full curve]",–
